58 compounds from PubChem BioAssay AID2685 (National Center for Advancing Translational Sciences (NCATS), 2010) can be followed below.

The test can be described thus: qHTS Assay for Lipid Storage Modulators in Drosophila S3 Cells.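 For cell number change: cells counted by Cell Tracker Red CMTPX staining in the red channel.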 As to conditions: BODIPY lipid droplet fluorescence, 18-24 h; for cell number change: measured here: cell count max response, cells fed with added oleic acid. The method in brief: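 Laser-scanning cytometry quantifies lipid droplet accumulation (500–530 nm total intensity; droplet/cell object ratio) in oleic acid-fed (400 uM added) Drosophila S3 cells treated with a concentration series. 20 uM Triacsin C defined 100% inhibition.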

The mark [1] stands for this setting: measured here: lipid fluorescence (Fed channel) AC50, cells fed with added oleic acid.
Setting [2] is: measured here: cell number channel AC50, cells fed with added oleic acid.

Some of the results follow. These are further read-outs of the screen, such as a control signal, another cell line or another target. No call is given for them. Compounds called inactive in the main read-out are mostly missing here. Potencies come from curve fits of mixed quality, noted in brackets.

For `Cc1ccnc(NS(=O)(=O)c2ccc(NC(=O)c3ccc(Cl)cc3[N+](=O)[O-])cc2)n1`, the cell number change is -24.6%. In addition, under setting [1], the half-maximal activity concentration (AC50) is 4.61 µM [rising, partial curve, poor fit].
With `CC1CCN(CCOc2cccc(Br)c2)CC1`, the cell number change was -4.9%.
Turning to `Cc1cc(C(=O)N2CCN(C(=O)C3CCCO3)CC2)no1` (stereo unspecified), the cell number change is -9.45%. Also, the AC50 under setting [1] is 4.61 µM [falling, full curve, poor fit].
In the case of `COc1ccc(OCC(O)CN2CCOCC2)cc1` (stereo unspecified), the cell number change came out at 13.5%. Under setting [1], the AC50 is 7.31 µM [falling, partial curve, poor fit].
On to `O=C1C2C3C=CC(C4CC34)C2C(=O)N1/N=C/c1ccc(-c2ccc(Cl)cc2[N+](=O)[O-])o1` (stereo unspecified), for which the cell number change was determined as 10.4%. Moreover, the AC50 under setting [1] was 1.64 µM [falling, partial curve, poor fit].
Regarding `CCCCc1nc(SCC(=O)N2CCCCC2)c2c(=O)n(C)c(=O)n(C)c2n1`, the cell number change is -10.1%.
Regarding `CC(=O)c1cccc(NC(=O)C2CCCN(S(=O)(=O)c3cccc4nonc34)C2)c1` (stereo unspecified), the cell number change came out at 109%. Also, the AC50 under setting [2] is 29.1 µM [rising, single point]. Also, the half-maximal activity concentration (AC50) under setting [1] is 29.1 µM [rising, single point].
Turning to `O=C(CSc1nnc(Cc2ccccc2)o1)Nc1ccc(Br)cn1`, the cell number change was -28.3%. Further, the AC50 under setting [1] is 4.11 µM [falling, full curve].
With `CN(CCOc1ccccc1)CCOc1ccccc1`, the cell number change was -2.56%. The AC50 under setting [2] was 6.51 µM [rising, single point].
On to `CC(C)OCCCn1c(-c2ccc(Br)cc2)c[nH]c1=S`, for which the cell number change is -45.5%. The concentration at half-maximal activity (AC50) under setting [2] is 29.1 µM [falling, single point]. For the same compound, under setting [1], the AC50 was 29.1 µM [falling, single point].
`CN1CCN(C(=O)CCNC(=O)Cn2cnc3ccccc3c2=O)CC1`: the cell number change was 19.4%. Besides, the AC50 under setting [2] is 0.731 µM [rising, full curve, poor fit]. In addition, under setting [1], the AC50 was 2.91 µM [falling, single point].
In the case of `O=C(CSCc1ccc(F)cc1)NCc1ccco1`, the cell number change came to 39%. Moreover, the AC50 under setting [2] is 29.1 µM [rising, single point].
On to `CCN(CC)S(=O)(=O)c1cc([N+](=O)[O-])ccc1NNC(=O)Nc1ccc(Cl)c(Cl)c1`, for which the cell number change is -61.9%. Moreover, under setting [2], the half-maximal activity concentration (AC50) is 20.6 µM [falling, single point]. Also, the half-maximal activity concentration (AC50) under setting [1] was 18.4 µM [falling, single point].
For the compound `O=C(Nc1ccc(C(=O)N2CCOCC2)cc1)c1cc(-c2cccnc2)nc2ccc(Br)cc12`, the cell number change was determined as 24%. The AC50 under setting [2] was 0.13 µM [falling, full curve, poor fit]. Moreover, the AC50 under setting [1] is 0.092 µM [falling, full curve, poor fit].
For the compound `CCOc1ccc(CCNC(=O)c2ccc3c(=O)[nH]c4c(C(=O)NC(C)C)sc(=S)n4c3c2)cc1`, the cell number change was -19.4%. Under setting [1], the AC50 is 0.92 µM [falling, full curve, poor fit].
Take `O=S1(=O)CCC(N2CCOCC2)C1` (stereo unspecified): the cell number change was -28.5%. Besides, the AC50 under setting [1] is 29.1 µM [falling, partial curve].
Turning to `Cc1cccc(NC(=O)CSc2nnc(CCC(=O)Nc3ccc(C)c(Cl)c3)n2C)c1`, the cell number change is -81.2%. For the same compound, under setting [2], the AC50 was 29.1 µM [falling, single point].
On to `O=C(NCCOCc1ccccc1)C(c1ccccc1)c1ccccc1`, for which the cell number change is -58.2%.
In the case of `O=C(c1ccc(CNS(=O)(=O)c2ccccc2)cc1)N1CCN(Cc2ccccc2)CC1`, the cell number change stood at 6.03%. The AC50 under setting [1] is 3.26 µM [falling, partial curve].
Regarding `C=CCOc1ccccc1CN(CCc1ccccc1)C(=O)c1cccc(S(C)(=O)=O)c1`, the AC50 under setting [1] is 6.51 µM [falling, single point].
In the case of `Cn1cc(/C=C(\NC(=O)c2ccccc2Cl)C(=O)NCCN2CCOCC2)c2ccccc21`, the cell number change is -6.6%. In addition, the AC50 under setting [1] is 6.51 µM [rising, single point].
Take `COc1cc(C(=O)NCc2nnc(SCC(=O)NCCc3ccccc3)o2)cc(OC)c1OC`: the cell number change came out at 36%. In addition, the AC50 under setting [2] was 29.1 µM [rising, single point]. The concentration at half-maximal activity (AC50) under setting [1] was 29.1 µM [rising, single point].
With `COc1ccc(C)cc1NC(=O)c1cc2c(=O)n3ccccc3nc2n1C`, the cell number change was determined as 7.56%. Further, the AC50 under setting [1] is 2.91 µM [rising, single point].
`COc1ccc(N=Cc2[nH]c3ccccc3c2O)cc1`: the cell number change was -37.6%. In addition, the concentration at half-maximal activity (AC50) under setting [2] was 0.206 µM [falling, full curve, poor fit]. Under setting [1], the AC50 is 32.6 µM [falling, single point].
For `COc1ccc(/C=N/Nc2cc(C)nc3ccc(OC)cc23)c(OC)c1`, the cell number change is -67.6%. For the same compound, the AC50 under setting [2] was 11.6 µM [falling, partial curve].
With `CCC(C)N(C(=O)COC(=O)COc1c(C)cc(C)cc1C)C1CCS(=O)(=O)C1` (stereo unspecified), the cell number change is -24%.
On to `Cc1cc(C)nc(N2C(=O)CC(C(=O)O)NC2=NCCc2c[nH]c3ccccc23)n1` (stereo unspecified), for which the cell number change worked out at 8.24%.
In the case of `COc1ccc(C(=O)N2CCN(C3CCCCC3)CC2)c(OC)c1`, the cell number change is -8.09%. Moreover, the AC50 under setting [1] was 25.9 µM [rising, single point].
For `Cc1ccc(C(=O)NC2CCCCNC2=O)cc1C` (stereo unspecified), the cell number change is 30.4%. Moreover, the concentration at half-maximal activity (AC50) under setting [2] is 0.00411 µM [rising, full curve, poor fit]. Also, under setting [1], the AC50 was 16.4 µM [rising, partial curve, poor fit].
Regarding `CCOC(=O)c1ccc(-c2ccc3c(=O)c4ccccc4n(C)c3c2)cc1F`, the half-maximal activity concentration (AC50) under setting [1] is 29.1 µM [rising, single point].
On to `COc1ccc(NCc2ccccc2[N+](=O)[O-])cc1OC`, for which the cell number change turned out to be 15.1%.
Turning to `O=[N+]([O-])c1ccc(O)c(CN2CCCCCC2)c1`, the cell number change was -15%.
For `COc1ccc(NC(=O)Cn2nnc(C(=O)NCc3ccco3)c2N)c(OC)c1`, the cell number change is -6.25%. Besides, under setting [2], the AC50 is 1.3 µM [falling, full curve].
On to `CC(=O)Nc1ccc2nc(NC(=O)CN3CCOCC3)sc2c1`, for which the cell number change was 15.3%. The AC50 under setting [1] was 6.51 µM [falling, single point].
Regarding `CCOc1ccc(-n2cnnn2)cc1S(=O)(=O)NCc1ccccc1`, the cell number change was -10%. For the same compound, the AC50 under setting [1] was 29.1 µM [falling, single point].
Regarding `Cc1cccc(N(C)C(=O)c2cc3cc4ccc(C)cc4nc3o2)c1`, the AC50 runs as follows: under setting [2], 6.51 µM [rising, single point]; under setting [1], 0.58 µM [falling, single point].
On to `O=C(/C=C/c1cnc2ccccc2n1)NC12CC3CC(CC(C3)C1)C2`, for which the cell number change is -15.1%.
With `CC(C)C[C@@H](C(=O)NCC1CCCO1)N1C(=O)N2CCc3c([nH]c4ccccc34)[C@@]2(C)C1=O` (stereo partly specified), the cell number change was determined as 0.647%. Besides, the AC50 under setting [1] is 29.1 µM [falling, single point].
For `Cc1ccc(C)c(Cn2c(=O)c3c(nc4n3CCN4Cc3ccco3)n(C)c2=O)c1`, the cell number change was found to be 103%.
Consider `O=C(Nc1cccc(Cl)c1)Nn1cnnc1`, for which the cell number change amounted to 10.9%. In addition, the AC50 under setting [1] was 18.4 µM [falling, partial curve, poor fit].
Consider `Cc1ccc2[nH]c3c(NCc4ccccc4)ncnc3c2c1`, for which the cell number change was -30.6%. The AC50 under setting [2] was 29.1 µM [falling, single point].
In the case of `Cc1ccc(CNC(=O)c2cn(C3CCCC3)c(=O)c3c2c2ccccc2n3C)o1`, the cell number change is 38.4%. Further, the AC50 under setting [2] is 29.1 µM [rising, single point].
On to `CCOC(=O)c1c(CSc2ccccc2)oc2ccc(O)cc12`, for which the cell number change is -59.9%. The AC50 under setting [2] is 20.6 µM [falling, single point]. In addition, under setting [1], the AC50 was 14.6 µM [falling, partial curve, poor fit].
With `CCOc1ccc(CCNC(=O)c2cc(-c3ccccc3)c(N3CCOCC3)s2)cc1OCC`, the cell number change came to 4.44%. Moreover, the AC50 under setting [1] is 23.1 µM [falling, single point].
On to `Cc1ccc(C(=O)NCCCN2CCOCC2)cc1S(=O)(=O)N1CCCCC1`, for which the cell number change is -3.2%. Besides, the AC50 under setting [1] is 16.4 µM [falling, single point].
As to `Nc1cc(=O)[nH]c(SCC(=O)Nc2ccccc2Sc2ccccc2)n1`, the cell number change was found to be 39.9%. Also, under setting [1], the AC50 was 0.082 µM [falling, partial curve, poor fit].
As for `FC(F)(F)c1ccccc1NC(=S)N1CCc2ccccc2C1`, the AC50 under setting [2] is 2.06 µM [rising, partial curve, poor fit].
For the compound `COc1ccc(/C=C/c2nc(-c3ccccc3O)n[nH]2)cc1`, the cell number change is -13.8%. Also, the half-maximal activity concentration (AC50) under setting [2] was 0.326 µM [falling, full curve, poor fit]. Besides, the AC50 under setting [1] was 29.1 µM [falling, single point].
On to `COc1ccc(N2C(=O)/C(=C\c3ccco3)N=C2SCC(=O)NC(C)C)cc1Cl`, for which the cell number change was -22.3%. Moreover, under setting [1], the AC50 was 18.4 µM [falling, single point].
With `S=C(NCc1ccc2c(c1)OCO2)NCc1ccc2c(c1)OCO2`, under setting [2], the AC50 was 4.11 µM [rising, single point].
Consider `COc1cccc(N2CC(NS(=O)(=O)c3cccs3)CC2=O)c1` (stereo unspecified), for which the cell number change came out at 44.2%. The AC50 under setting [2] was 29.1 µM [rising, single point]. Besides, the AC50 under setting [1] was 29.1 µM [rising, single point].
Turning to `COC(=O)C1=CN(Cc2cccs2)C=C(C(=O)OC)C1c1cccc(OC)c1OC`, the cell number change was -0.573%. For the same compound, the concentration at half-maximal activity (AC50) under setting [2] was 0.082 µM [falling, full curve, poor fit]. For the same compound, the AC50 under setting [1] is 2.59 µM [rising, single point].
In the case of `Cc1[nH]c(C(=O)N/N=C/c2ccc(N(C)C)cc2)c(C)c1C(=O)N/N=C/c1ccc(N(C)C)cc1`, the cell number change stood at 81.2%. Besides, the AC50 under setting [2] is 13 µM [rising, partial curve].
As to `CCN(CC)c1ccc(-c2nn3c(-c4cccnc4)nnc3s2)cc1`, the cell number change is -5.46%. Besides, the AC50 under setting [1] was 0.731 µM [falling, full curve].
Turning to `S=c1[nH]nc2c3c4c(sc3ncn12)CCCC4`, the cell number change stood at 10.5%. For the same compound, the AC50 under setting [1] was 9.2 µM [rising, partial curve, poor fit].
In the case of `CCn1nc(CC(=O)Nc2nnc(CC(=O)N3CCCCC3)s2)c2ccccc2c1=O`, the cell number change was 132%. In addition, the AC50 under setting [2] was 23.1 µM [rising, partial curve]. The AC50 under setting [1] was 20.6 µM [rising, partial curve].
Consider `C=CCn1c(CNS(=O)(=O)c2ccc(Cl)cc2)n[nH]c1=S`, for which the AC50 under setting [1] is 5.8 µM [rising, full curve, poor fit].
Consider `CCCc1cc(=O)[nH]c(SCC(=O)NC2CCCCC2)n1`, for which the cell number change was -27.3%. Further, under setting [2], the AC50 was 0.82 µM [falling, full curve, poor fit]. Further, the AC50 under setting [1] was 23.1 µM [falling, partial curve].
